PubChem BioAssay AID1224826 – NIAID – 2016
The deposit covers about 17,000 reagents; this is a part drawn at random. About 1,110 of all reagents (6.6%) count as active. 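Active means lowered or raised reporter signal; replicate intensities are raw and not normalised per plate.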 Unmarked entries are inactive. Reagents against one gene are numbered here. Some reagents were tested in more than one well and are listed for each.

Aim: 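Genes that change LPS-induced Tnf promoter activity in mouse macrophages when knocked down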 (primary screen)
Cell system: RAW264.7 G9 macrophages from mouse bearing reporters for p65 (GFP) and the Tnf promoter (mCherry)
Reagents: siRNA pool against mouse genes, 100 nM
Duration: 16 h of LPS stimulation, after 2 days of siRNA transfection
Challenge: bacterial lipopolysaccharide (Salmonella minnesota R595), 10 ng/ml
Read-out: 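Nuclear mCherry signal of the Tnf promoter reporter measured by imaging after background removal, scaled to each plate median and turned into robust z-scores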
Reading the numbers: Tnf reporter robust z-score: higher = stronger Tnf promoter reporter signal after LPS; Tnf reporter intensity: higher = stronger Tnf promoter reporter signal
Active means: 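a well counts as active at a score of -1.3 or below (Tlr4 knock-down control median) or above 3 (raised signal); controls and wells holding fewer than 50 cells are excluded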
Meaning of the calls: active = Tnf reporter clearly lowered or raised; inactive = no clear change in Tnf reporter

Target gene | reagent | Tnf reporter robust z-score | fewer than 50 cells in well | Tnf reporter intensity, replicate 1 | Tnf reporter intensity, replicate 2
Wdr11 | 1 | -0.01 | enough cells in well | 265 | 224
Fpr-rs3 | 1 | 0.93 | enough cells in well | 297 | 199
Slc25a13 | 1 | 0.73 | enough cells in well | 264 | 184
Qrfp | 1 | -0.33 | enough cells in well | 131 | 118
Gnai2 | 1 | -0.41 | enough cells in well | 204 | 162
Gpld1 | 1 | -0.99 | enough cells in well | 173 | 53.8
Sdhaf4 | 1 | -0.08 | enough cells in well | 256 | 74.5
Cmpk1 | 1 | – | fewer than 50 cells per well; well left out of calls | 131 | 139
Cmpk1 | 1 | 0.91 | enough cells in well | 427 | 77.6
Pcbp3 | 1 | -0.77 | enough cells in well | 112 | 68.8
Art2b | 1 | 2.1 | enough cells in well | 316 | 258
Egln1 | 1 | -2.02 (active) | enough cells in well | 65.5 | 54
Sod2 | 1 | 0.51 | enough cells in well | 270 | 300
Nkx2-3 | 1 | 0.44 | enough cells in well | 339 | 161
Atg3 | 1 | -0.39 | enough cells in well | 239 | 60.8
Kcna7 | 1 | -0.11 | enough cells in well | 237 | 140
Def6 | 1 | 0.01 | enough cells in well | 167 | 180
Or4f54 | 1 | 0.6 | enough cells in well | 210 | 150
Fgfr1op2 | 1 | 0.82 | enough cells in well | 327 | 168
Lrrc3b | 1 | 1.52 | enough cells in well | 324 | 301
Mia2 | 1 | -0.29 | enough cells in well | 168 | 135
Mia2 | 2 | 0.89 | enough cells in well | 171 | 253
AU040320 | 1 | -0.88 | enough cells in well | 140 | 96.4
Tfb1m | 1 | -0.31 | enough cells in well | 226 | 109

4 entries from above, ordered by “Tnf reporter intensity, replicate 2”, high to low:
Target gene | reagent | Tnf reporter robust z-score | fewer than 50 cells in well | Tnf reporter intensity, replicate 1 | Tnf reporter intensity, replicate 2
Def6 | 1 | 0.01 | enough cells in well | 167 | 180
Fgfr1op2 | 1 | 0.82 | enough cells in well | 327 | 168
Or4f54 | 1 | 0.6 | enough cells in well | 210 | 150
Kcna7 | 1 | -0.11 | enough cells in well | 237 | 140

Continued:
Target gene | reagent | Tnf reporter robust z-score | fewer than 50 cells in well | Tnf reporter intensity, replicate 1 | Tnf reporter intensity, replicate 2
Wdr1 | 1 | -0.37 | enough cells in well | 222 | 206
Hdgfl2 | 1 | 0.92 | enough cells in well | 269 | 250
Kif2b | 1 | -0.39 | enough cells in well | 205 | 132
Nol12 | 1 | -0.45 | enough cells in well | 113 | 186
Lrrc61 | 1 | -0.35 | enough cells in well | 192 | 172
Vwa3a | 1 | 0 | enough cells in well | 188 | 83.7
Maob | 1 | -0.11 | enough cells in well | 272 | 183
Mybl2 | 1 | -1.28 | enough cells in well | 124 | 139
Angpt2 | 1 | -0.25 | enough cells in well | 121 | 193
Spock3 | 1 | 3.07 (active) | enough cells in well | 270 | 141
Sf1 | 1 | 0.12 | enough cells in well | 44.2 | 133
Zc3h10 | 1 | -0.17 | enough cells in well | 226 | 146
Prrt3 | 1 | -1.65 (active) | enough cells in well | 73.2 | 75.4
Cercam | 1 | -0.06 | enough cells in well | 169 | 138
Pepf | 1 | -0.67 | enough cells in well | 116 | 101
Dlx4 | 1 | 0.48 | enough cells in well | 255 | 254
Or6c66 | 1 | – | fewer than 50 cells per well; well left out of calls | 15.1 | 92.8
Myef2 | 1 | -0.6 | enough cells in well | 210 | 67.8
Gpalpp1 | 1 | 1.2 | enough cells in well | 337 | 102
Psme3ip1 | 1 | – | fewer than 50 cells per well; well left out of calls | 198 | 70.4
Dgka | 1 | -0.27 | enough cells in well | 121 | 193
Pcgf2 | 1 | -0.41 | enough cells in well | 283 | 165
Ripk4 | 1 | -1.25 | enough cells in well | 102 | 101
Ttll1 | 1 | -0.67 | enough cells in well | 92.9 | 56
Myl3 | 1 | -0.78 | enough cells in well | 183 | 160
Pign | 1 | -0.07 | enough cells in well | 182 | 93.4
Or8b47 | 1 | – | fewer than 50 cells per well; well left out of calls | 110 | 121
Defb34 | 1 | 0.76 | enough cells in well | 262 | 182
Mtus2 | 1 | -0.92 | enough cells in well | 67.6 | 111
Fxr2 | 1 | 0.16 | enough cells in well | 280 | 240
H2aj | 1 | -0.52 | enough cells in well | 195 | 165
Arl2bp | 1 | -0.55 | enough cells in well | 175 | 99.6
Fam167b | 1 | -1.09 | enough cells in well | 132 | 129
Bmal2 | 1 | -0.34 | enough cells in well | 150 | 148
